Reference: publication PMC6484409
No constants are given. Whether binding was seen depends on the method and setting. Binding seen in cells or lysates may run through a third protein. Some binding calls cover weakened binding; strength is not graded here. Blank lines part the entries; values can stand above or below the molecule they belong to.

Sequences of proteins named here, by UniProt entry; tags and fusion partners are left off. A change or cut given only in a name is not applied to a line headed by its entry. A line that says so, or that is headed by a name, gives the form on record, which may keep a tag or linker. Residues count along the entry.
Flag-S-tagged mouse ATG16L1 with residues 182-205 deleted in the full-length protein (Q8C0J2-3, form named): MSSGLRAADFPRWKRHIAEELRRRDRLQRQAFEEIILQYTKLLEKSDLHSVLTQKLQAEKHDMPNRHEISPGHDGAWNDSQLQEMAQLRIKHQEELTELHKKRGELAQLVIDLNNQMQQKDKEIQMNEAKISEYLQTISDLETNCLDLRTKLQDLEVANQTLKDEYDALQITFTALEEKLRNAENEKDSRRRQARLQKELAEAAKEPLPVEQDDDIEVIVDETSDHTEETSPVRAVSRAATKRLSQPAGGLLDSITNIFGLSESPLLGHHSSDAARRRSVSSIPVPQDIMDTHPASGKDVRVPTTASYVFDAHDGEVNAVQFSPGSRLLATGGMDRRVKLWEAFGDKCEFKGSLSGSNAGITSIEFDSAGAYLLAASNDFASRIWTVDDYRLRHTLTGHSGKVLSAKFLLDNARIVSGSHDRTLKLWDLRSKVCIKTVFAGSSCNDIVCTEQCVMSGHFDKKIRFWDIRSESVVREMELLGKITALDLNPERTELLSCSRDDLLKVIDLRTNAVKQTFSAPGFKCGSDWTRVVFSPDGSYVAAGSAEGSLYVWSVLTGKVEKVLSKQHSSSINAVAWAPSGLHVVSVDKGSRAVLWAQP
Flag-S-tagged mouse ATG16L1 lipid binding-deficient mutant (I171D K179D R193D) (Q8C0J2-3, form named): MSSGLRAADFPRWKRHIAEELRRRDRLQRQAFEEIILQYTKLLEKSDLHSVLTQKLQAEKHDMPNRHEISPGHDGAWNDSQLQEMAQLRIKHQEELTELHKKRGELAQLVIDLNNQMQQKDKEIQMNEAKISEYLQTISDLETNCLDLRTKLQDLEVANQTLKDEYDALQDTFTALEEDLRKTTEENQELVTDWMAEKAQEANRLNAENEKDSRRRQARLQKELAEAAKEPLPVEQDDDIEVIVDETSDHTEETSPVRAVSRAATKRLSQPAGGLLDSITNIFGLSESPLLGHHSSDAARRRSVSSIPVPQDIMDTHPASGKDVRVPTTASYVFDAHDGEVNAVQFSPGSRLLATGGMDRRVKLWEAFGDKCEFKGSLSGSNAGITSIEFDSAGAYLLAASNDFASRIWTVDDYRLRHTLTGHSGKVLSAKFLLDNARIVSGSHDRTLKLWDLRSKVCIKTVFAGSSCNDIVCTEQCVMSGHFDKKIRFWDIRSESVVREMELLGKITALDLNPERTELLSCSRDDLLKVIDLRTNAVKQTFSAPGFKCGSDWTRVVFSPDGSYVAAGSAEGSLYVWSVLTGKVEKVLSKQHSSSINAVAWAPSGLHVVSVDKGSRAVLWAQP
Flag-S-tagged mouse ATG16L1 wild type (Q8C0J2-3, form named): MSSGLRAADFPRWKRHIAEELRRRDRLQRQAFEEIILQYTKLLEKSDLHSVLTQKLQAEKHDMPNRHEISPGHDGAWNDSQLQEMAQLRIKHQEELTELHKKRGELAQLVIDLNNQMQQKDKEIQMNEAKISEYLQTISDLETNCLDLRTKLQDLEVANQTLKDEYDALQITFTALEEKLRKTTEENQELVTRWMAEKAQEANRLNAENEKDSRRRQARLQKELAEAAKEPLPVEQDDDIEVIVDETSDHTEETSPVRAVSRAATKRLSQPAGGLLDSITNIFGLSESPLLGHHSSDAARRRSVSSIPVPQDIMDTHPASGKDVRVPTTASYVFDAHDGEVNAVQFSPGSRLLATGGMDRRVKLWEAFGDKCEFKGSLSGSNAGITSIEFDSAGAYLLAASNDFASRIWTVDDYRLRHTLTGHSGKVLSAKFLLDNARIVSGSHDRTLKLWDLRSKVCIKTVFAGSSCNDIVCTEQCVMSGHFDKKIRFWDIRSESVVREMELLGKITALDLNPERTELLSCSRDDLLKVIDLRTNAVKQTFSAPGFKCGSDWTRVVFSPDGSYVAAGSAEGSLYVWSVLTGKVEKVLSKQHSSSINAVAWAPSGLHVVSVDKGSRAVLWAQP
UniProt Q8TDY2: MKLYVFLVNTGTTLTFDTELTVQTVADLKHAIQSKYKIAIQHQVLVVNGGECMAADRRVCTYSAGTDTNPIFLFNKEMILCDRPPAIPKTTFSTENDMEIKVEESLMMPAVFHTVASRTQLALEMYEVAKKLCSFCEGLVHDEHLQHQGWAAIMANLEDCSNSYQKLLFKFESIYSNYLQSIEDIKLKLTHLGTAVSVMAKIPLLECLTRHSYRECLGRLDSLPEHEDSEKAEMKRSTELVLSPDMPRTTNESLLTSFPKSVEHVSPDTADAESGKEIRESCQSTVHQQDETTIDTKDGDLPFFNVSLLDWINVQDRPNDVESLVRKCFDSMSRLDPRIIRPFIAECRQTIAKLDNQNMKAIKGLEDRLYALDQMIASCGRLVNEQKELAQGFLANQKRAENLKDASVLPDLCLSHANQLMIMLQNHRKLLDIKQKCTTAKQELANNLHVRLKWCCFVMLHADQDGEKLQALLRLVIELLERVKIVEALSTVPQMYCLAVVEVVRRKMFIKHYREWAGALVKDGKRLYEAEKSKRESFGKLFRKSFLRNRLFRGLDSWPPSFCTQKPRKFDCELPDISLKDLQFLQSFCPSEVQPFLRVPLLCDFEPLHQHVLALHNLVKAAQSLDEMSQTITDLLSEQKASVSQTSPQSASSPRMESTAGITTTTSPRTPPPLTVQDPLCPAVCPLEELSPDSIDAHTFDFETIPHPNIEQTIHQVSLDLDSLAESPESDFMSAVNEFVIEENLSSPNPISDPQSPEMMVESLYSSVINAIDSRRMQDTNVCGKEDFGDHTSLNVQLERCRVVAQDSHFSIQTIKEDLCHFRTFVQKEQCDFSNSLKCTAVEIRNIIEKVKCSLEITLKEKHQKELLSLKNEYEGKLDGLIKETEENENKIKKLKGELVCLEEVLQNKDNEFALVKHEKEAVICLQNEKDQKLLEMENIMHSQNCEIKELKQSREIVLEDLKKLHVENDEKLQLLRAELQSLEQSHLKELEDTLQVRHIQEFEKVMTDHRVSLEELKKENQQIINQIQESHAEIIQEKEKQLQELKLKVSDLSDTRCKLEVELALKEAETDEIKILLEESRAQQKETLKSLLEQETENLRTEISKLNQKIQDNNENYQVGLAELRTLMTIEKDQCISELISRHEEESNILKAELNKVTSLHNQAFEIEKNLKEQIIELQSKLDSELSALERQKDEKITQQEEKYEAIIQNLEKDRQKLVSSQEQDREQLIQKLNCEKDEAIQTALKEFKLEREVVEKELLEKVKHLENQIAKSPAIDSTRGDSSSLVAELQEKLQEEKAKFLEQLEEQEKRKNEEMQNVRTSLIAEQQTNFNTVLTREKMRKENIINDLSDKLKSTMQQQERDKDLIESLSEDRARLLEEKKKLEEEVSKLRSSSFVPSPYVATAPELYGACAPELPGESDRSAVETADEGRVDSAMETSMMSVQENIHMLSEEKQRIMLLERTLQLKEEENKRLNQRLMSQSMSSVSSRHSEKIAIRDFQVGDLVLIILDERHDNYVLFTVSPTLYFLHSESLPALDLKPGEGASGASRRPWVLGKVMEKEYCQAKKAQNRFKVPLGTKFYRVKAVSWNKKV

Legend:
[1] = biological target: Flag-S-tagged mouse ATG16L1 with residues 182-205 deleted in the full-length protein (mouse) (UniProt Q8C0J2); assay: pull-down; 293T cells transiently transfected with Flag-S-tagged ATG16L1 constructs; lysis in NP-40 buffer (150 mM NaCl, 25 mM HEPES pH 7.5, 1.5 mM MgCl2, 1 mM EDTA, 1.5 mM β-ME, 0.5% NP-40); S tag pull-down on S-protein agarose 5 h or overnight at 4°C; bound proteins of the lysate (FIP200, ATG5, WIPI2) immunoblotted
[2] = biological target: Flag-S-tagged mouse ATG16L1 lipid binding-deficient mutant (I171D K179D R193D) (mouse) (UniProt Q8C0J2); assay: as above
[3] = biological target: Flag-S-tagged mouse ATG16L1 wild type (mouse) (UniProt Q8C0J2); assay: as above
[4] = biological target: Flag-S-tagged mouse ATG16L1 with residues 182-205 deleted in the full-length protein (mouse) (UniProt Q8C0J2); assay: pull-down; homodimerisation assay: 293T cells co-transfected with ATG16L1-GFP and Flag-S-tagged ATG16L1 constructs; NP-40 buffer lysate; S tag pull-down on S-protein agarose at 4°C; immunoblot
[5] = biological target: Flag-S-tagged mouse ATG16L1 lipid binding-deficient mutant (I171D K179D R193D) (mouse) (UniProt Q8C0J2); assay: as above
[6] = biological target: Flag-S-tagged mouse ATG16L1 wild type (mouse) (UniProt Q8C0J2); assay: as above
[7] = biological target: Flag-S-tagged mouse ATG16L1 lipid binding-deficient mutant (I171D K179D R193D) (mouse) (UniProt Q8C0J2); assay: pull-down; 293T cells transiently transfected with Flag-S-tagged ATG16L1 constructs; lysis in NP-40 buffer (150 mM NaCl, 25 mM HEPES pH 7.5, 1.5 mM MgCl2, 1 mM EDTA, 1.5 mM β-ME, 0.5% NP-40); S tag pull-down on S-protein agarose 5 h or overnight at 4°C; bound proteins of the lysate (FIP200, ATG5, WIPI2) immunoblotted; remark: listed apart in the source
[8] = biological target: Flag-S-tagged mouse ATG16L1 wild type (mouse) (UniProt Q8C0J2); assay: as above; remark: listed apart in the source

binding [1]: binds
binding [2]: binds
binding [3]: binds
Molecule: FIP200 (from UniProt Q8TDY2 1-1594)

binding [4]: binds
binding [5]: binds
binding [6]: binds
Molecule: C-terminal tagged mouse ATG16L1^WT-GFP (from UniProt Q8C0J2-3 1-623)

binding [7]: binds
binding [8]: binds
B1: WIPI2b (protein, UniProt Q9Y4P8-4 1-436)
chain: MNLASQSGEAGAGQLLFANFNQDNTSLAVGSKSGYKFFSLSSVDKLEQIYECTDTEDVCIVERLFSSSLVAIVSLKAPRKLKVCHFKKGTEICNYSYSNTILAVKLNRQRLIVCLEESLYIHNIRDMKVLHTIRETPPNPAGLCALSINNDNCYLAYPGSATIGEVQVFDTINLRAANMIPAHDSPLAALAFDASGTKLATASEKGTVIRVFSIPEGQKLFEFRRGVKRCVSICSLAFSMDGMFLSASSNTETVHIFKLETVKEKPPEEPTTWTGYFGKVLMASTSYLPSQVTEMFNQGRAFATVRLPFCGHKNICSLATIQKIPRLLVGAADGYLYMYNLDPQEGGECALMKQHRLDGSLETTNEILDSASHDCPLVTQTYGAAAGKGTYVPSSPTRLAYTDDLGAVGGACLEDEASALRLDEDSEHPPMILRTD
